{"source": "PubChem BioAssay AID1259308 (NCATS, 2017)", "purpose": "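Candidate targets for better recombinant protein yield in mammalian cells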 (primary screen)", "cell system": "human HEK293 embryonic kidney cells stably expressing firefly luciferase (HEK-CMV-Luc2-Hygro)", "reagents": "single siRNA against human genes, 0.8 pmol siRNA per well", "duration": "72 h", "read-out": "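Reporter luminescence and viable-cell signal on separate replicate plates, given as percent of non-targeting control and median/MAD z-scores, plus per-cell luciferase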", "scale": "total luciferase, z-score: higher = more reporter protein produced", "call rule": "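An siRNA counts as active if its total luciferase robust z-score exceeds 3; genes with two or more such siRNAs out of three were retested with fresh siRNAs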", "calls": "active = raised luciferase; inactive = no rise", "note": "Shown is one part, drawn at random, of about 59,000 reagents. About 1,510 of them (2.6%) count as active. 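Calls use total luciferase alone and ignore viability, so some active siRNAs may act by altering cell number.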 The numbers tell different reagents against one gene apart. Further read-outs or replicates are left out here."}
{"Gene":"FAM157A","siRNA no.":1,"total luciferase, z-score":0.974,"activity call":"inactive"}
{"Gene":"FAM157A","siRNA no.":2,"total luciferase, z-score":-1.38,"activity call":"inactive"}
{"Gene":"FAM157A","siRNA no.":3,"total luciferase, z-score":0.357,"activity call":"inactive"}
{"Gene":"SLC4A11","siRNA no.":1,"total luciferase, z-score":-0.0979,"activity call":"inactive"}
{"Gene":"SLC4A11","siRNA no.":2,"total luciferase, z-score":-1.2,"activity call":"inactive"}
{"Gene":"SLC4A11","siRNA no.":3,"total luciferase, z-score":0.558,"activity call":"inactive"}
{"Gene":"AKR1C6P","siRNA no.":1,"total luciferase, z-score":-0.281,"activity call":"inactive"}
{"Gene":"AKR1C6P","siRNA no.":2,"total luciferase, z-score":-0.166,"activity call":"inactive"}
{"Gene":"AKR1C6P","siRNA no.":3,"total luciferase, z-score":-0.787,"activity call":"inactive"}
{"Gene":"LOC652608","siRNA no.":1,"total luciferase, z-score":-0.856,"activity call":"inactive"}
{"Gene":"LOC652608","siRNA no.":2,"total luciferase, z-score":-0.311,"activity call":"inactive"}
{"Gene":"LOC652608","siRNA no.":3,"total luciferase, z-score":0.996,"activity call":"inactive"}
{"Gene":"HAUS8","siRNA no.":1,"total luciferase, z-score":1.09,"activity call":"inactive"}
{"Gene":"HAUS8","siRNA no.":2,"total luciferase, z-score":0.78,"activity call":"inactive"}
{"Gene":"HAUS8","siRNA no.":3,"total luciferase, z-score":-0.843,"activity call":"inactive"}
{"Gene":"KICS2","siRNA no.":1,"total luciferase, z-score":-0.447,"activity call":"inactive"}
{"Gene":"KICS2","siRNA no.":2,"total luciferase, z-score":1.99,"activity call":"inactive"}
{"Gene":"KICS2","siRNA no.":3,"total luciferase, z-score":1.29,"activity call":"inactive"}
{"Gene":"OR5AC2","siRNA no.":1,"total luciferase, z-score":-0.459,"activity call":"inactive"}
{"Gene":"OR5AC2","siRNA no.":2,"total luciferase, z-score":0.55,"activity call":"inactive"}
{"Gene":"OR5AC2","siRNA no.":3,"total luciferase, z-score":-0.1,"activity call":"inactive"}

No new results follow: 2 of the entries above.
{"Gene":"SLC4A11","siRNA no.":3,"total luciferase, z-score":0.558,"activity call":"inactive"}
{"Gene":"AKR1C6P","siRNA no.":1,"total luciferase, z-score":-0.281,"activity call":"inactive"}
